Measurements reported in PubChem BioAssay AID1159590 (NIAID, 2016)
Shown is one part, drawn at random, of 756 reagents tested. Of all reagents, 128 (17%) were called active. 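Calls are two-sided: both reduced and increased p65 nuclear entry count as active.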 Unmarked entries are inactive. Reagents against one gene are numbered here. Not stated in the record: the amount of reagent.

Aim: 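Effect of gene knock-down on p65 moving into nuclei after TLR2 stimulation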
Cells: mouse RAW264.7 macrophage reporter cells expressing GFP-p65 and a Tnf promoter-mCherry
Reagent: single siRNA against mouse genes
Time to read-out: 48 to 72 hours after siRNA transfection, then 40 minutes of ligand
Challenge: Pam3CSK4 (TLR2/1 agonist) for 40 minutes before fixation; dose not given
Measured: 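p65 nuclear translocation measured by high-content imaging, shown for each siRNA as a robust z-score averaged across replicates, relative to negative controls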
Scale: p65 nuclear entry z-score: higher = more p65 moved into nuclei than in negative-control wells
Call rule: In these data the active calls have p65 nuclear entry z-score, replicate mean at about -1.5 or lower, or at about 1.5 or higher
Calls: active = strong change, up or down; inactive = little change

Il1rl1 #1
- p65 nuclear entry z-score, replicate mean: -1.06

Il1rl1 #2
- p65 nuclear entry z-score, replicate mean: -0.655

Il1rl1 #3
- p65 nuclear entry z-score, replicate mean: -0.886

Il1rl1 #4
- p65 nuclear entry z-score, replicate mean: -0.327

Il1rl1 #5
- p65 nuclear entry z-score, replicate mean: -0.421

Il1rl1 #6
- p65 nuclear entry z-score, replicate mean: -0.627

Tollip #1
- p65 nuclear entry z-score, replicate mean: -0.0671

Tollip #2
- p65 nuclear entry z-score, replicate mean: -0.793

Tollip #3
- p65 nuclear entry z-score, replicate mean: -2.52 (active)

Tollip #4
- p65 nuclear entry z-score, replicate mean: -1.3

Tollip #5
- p65 nuclear entry z-score, replicate mean: -1.35

Tollip #6
- p65 nuclear entry z-score, replicate mean: 0.633

Jun #1
- p65 nuclear entry z-score, replicate mean: -0.943

Jun #2
- p65 nuclear entry z-score, replicate mean: -2.32 (active)

Jun #3
- p65 nuclear entry z-score, replicate mean: -0.421

Jun #4
- p65 nuclear entry z-score, replicate mean: -1.29

Jun #5
- p65 nuclear entry z-score, replicate mean: 0.31

Jun #6
- p65 nuclear entry z-score, replicate mean: -0.127

Fos #1
- p65 nuclear entry z-score, replicate mean: -3.01 (active)

Fos #2
- p65 nuclear entry z-score, replicate mean: -0.346

Fos #3
- p65 nuclear entry z-score, replicate mean: 0.325

Fos #4
- p65 nuclear entry z-score, replicate mean: -1.41

Fos #5
- p65 nuclear entry z-score, replicate mean: -0.0152

Fos #6
- p65 nuclear entry z-score, replicate mean: 0.461

Rac1 #1
- p65 nuclear entry z-score, replicate mean: 2.05 (active)

Rac1 #2
- p65 nuclear entry z-score, replicate mean: 0.461

Rac1 #3
- p65 nuclear entry z-score, replicate mean: -1.49

Rac1 #4
- p65 nuclear entry z-score, replicate mean: -0.799

Rac1 #5
- p65 nuclear entry z-score, replicate mean: -0.599

Rac1 #6
- p65 nuclear entry z-score, replicate mean: -0.626

Tab2 #1
- p65 nuclear entry z-score, replicate mean: -0.638

Tab2 #2
- p65 nuclear entry z-score, replicate mean: -0.368

Tab2 #3
- p65 nuclear entry z-score, replicate mean: -0.0452

Tab2 #4
- p65 nuclear entry z-score, replicate mean: -0.989

Tab2 #5
- p65 nuclear entry z-score, replicate mean: 0.375

Tab2 #6
- p65 nuclear entry z-score, replicate mean: -0.833

Ube2n #1
- p65 nuclear entry z-score, replicate mean: -0.136

Ube2n #2
- p65 nuclear entry z-score, replicate mean: -0.409

Ube2n #3
- p65 nuclear entry z-score, replicate mean: 0.209

Ube2n #4
- p65 nuclear entry z-score, replicate mean: 0.5

Ube2n #5
- p65 nuclear entry z-score, replicate mean: -0.726

Ube2n #6
- p65 nuclear entry z-score, replicate mean: 0.844

Peli1 #1
- p65 nuclear entry z-score, replicate mean: -0.982

Peli1 #2
- p65 nuclear entry z-score, replicate mean: -0.544

Peli1 #3
- p65 nuclear entry z-score, replicate mean: -0.091

Peli1 #4
- p65 nuclear entry z-score, replicate mean: 0.404

Peli1 #5
- p65 nuclear entry z-score, replicate mean: -1.76 (active)

Peli1 #6
- p65 nuclear entry z-score, replicate mean: 0.816

Cxcl11 #1
- p65 nuclear entry z-score, replicate mean: -0.0367

Cxcl11 #2
- p65 nuclear entry z-score, replicate mean: 0.917

Cxcl11 #3
- p65 nuclear entry z-score, replicate mean: 1.02

Cxcl11 #4
- p65 nuclear entry z-score, replicate mean: -0.729

Cxcl11 #5
- p65 nuclear entry z-score, replicate mean: -0.192

Cxcl11 #6
- p65 nuclear entry z-score, replicate mean: -0.454

Otud5 #1
- p65 nuclear entry z-score, replicate mean: -0.907

Otud5 #2
- p65 nuclear entry z-score, replicate mean: 1.82 (active)

Otud5 #3
- p65 nuclear entry z-score, replicate mean: 0.124

Otud5 #4
- p65 nuclear entry z-score, replicate mean: -0.114

Otud5 #5
- p65 nuclear entry z-score, replicate mean: 0.623

Otud5 #6
- p65 nuclear entry z-score, replicate mean: 2.23 (active)

Sorted by “p65 nuclear entry z-score, replicate mean” (descending): 7 of the entries above.
Tollip #6
- p65 nuclear entry z-score, replicate mean: 0.633

Jun #3
- p65 nuclear entry z-score, replicate mean: -0.421

Jun #1
- p65 nuclear entry z-score, replicate mean: -0.943

Tollip #4
- p65 nuclear entry z-score, replicate mean: -1.3

Tollip #5
- p65 nuclear entry z-score, replicate mean: -1.35

Jun #2
- p65 nuclear entry z-score, replicate mean: -2.32 (active)

Tollip #3
- p65 nuclear entry z-score, replicate mean: -2.52 (active)
